Among the data in the odorant receptor screen of Mainland et al. (2015) are odorant receptor activation values, retold here.

Some test systems named below: OR1J2 clone 1443; OR1J4 clone 1429; OR1K1 clone 1315; OR1L1 clone 1379; OR1L3 clone 1090; OR1L4 G234R clone 1102; OR1L8 clone 1088; OR1M1 clone 1198; OR1N1 clone 1463.
What all share (test): odorant receptor activation (CRE luciferase / Renilla) (fold of no-odor wells); higher = more activation
Holding throughout (settings): 100 µM

Experiment [1] deals with OR1L6 Q23K/C150Y/I215T/R221Q/M223I/G234R clone 1539.

Where “and” joins values, the source holds several entries; their conditions need not be identical. Equal entries are not always repeated. This is one part of the list. Single wells; the ratio to wells without odorant was worked out here, and repeats agree poorly.

Take `CCC1(O)C2(C)CCC(C2)C1(C)C` (configuration not stated) [2-ethylfenchol]: the odorant receptor activation with OR1J2 clone 1443 turned out to be 0.93; in the experiment with OR1J4 clone 1429, 1.16; in the experiment with OR1K1 clone 1315, 0.76; with OR1L1 clone 1379, 1.07; with OR1L3 clone 1090 it was 28.7; in the experiment on OR1L4 G234R clone 1102, 31.3. Besides, the odorant receptor activation in experiment [1] is 1.46; in the experiment on OR1L8 clone 1088 it was 2.3; with OR1M1 clone 1198, 0.852; with OR1N1 clone 1463, 1.25.

As for `CC1=NC(C)SC1C` (configuration not stated), the odorant receptor activation in the experiment on OR1J2 clone 1443 is 1.12; in the experiment with OR1J4 clone 1429, 1.11; with OR1K1 clone 1315, 1.37; with OR1L1 clone 1379 it was 1.04; in the experiment on OR1L3 clone 1090, 1.08; in the experiment with OR1L4 G234R clone 1102 it was 0.854. For the same compound, the odorant receptor activation in the experiment with OR1L8 clone 1088 was 1.39; in the experiment on OR1M1 clone 1198, 1.04; in the experiment on OR1N1 clone 1463 it was 0.951 and 0.916.

Consider `C=CCc1ccc(OC(C)=O)c(OC)c1` [eugenol acetate], for which the odorant receptor activation in the experiment on OR1J2 clone 1443 is 1.41; in the experiment on OR1J4 clone 1429, 1.52; in the experiment with OR1K1 clone 1315, 1.85; in the experiment with OR1L1 clone 1379 it was 1.78; in the experiment with OR1L3 clone 1090, 1.67; in the experiment with OR1L4 G234R clone 1102 it was 2.03. Further, the odorant receptor activation in [1] is 1.11; in the experiment with OR1L8 clone 1088 it was 1.66; in the experiment on OR1M1 clone 1198 it was 1.98; with OR1N1 clone 1463, 1.63.

On to `CC(=O)c1ccccc1` [acetophenone], for which the odorant receptor activation in the experiment on OR1J2 clone 1443 worked out at 0.941; in the experiment on OR1J4 clone 1429, 0.974; in the experiment with OR1K1 clone 1315, 3.74; in the experiment on OR1L1 clone 1379 it was 0.865; with OR1L3 clone 1090, 1.03; in the experiment on OR1L4 G234R clone 1102, 1.18. Also, the odorant receptor activation was 0.828 with OR1L8 clone 1088; 1.42 in the experiment with OR1M1 clone 1198; 0.995 and 0.722 in the experiment with OR1N1 clone 1463.

In the case of `CC1=CCC(C(C)(C)O)CC1` (configuration not stated) [terpineol], the odorant receptor activation in the experiment on OR1J2 clone 1443 is 1.26; in the experiment on OR1J4 clone 1429, 1.08; with OR1K1 clone 1315, 1.33; with OR1L1 clone 1379, 1.32; in the experiment with OR1L3 clone 1090, 1.13; in the experiment on OR1L4 G234R clone 1102, 1.11. For the same compound, the odorant receptor activation worked out at 0.78 in [1], 1.08 with OR1L8 clone 1088, 1.26 in the experiment with OR1M1 clone 1198 and 0.75 in the experiment with OR1N1 clone 1463.

For `C=CC(C)(O)CCC=C(C)C` (configuration not stated) [linalool], the odorant receptor activation with OR1J2 clone 1443 came to 0.814; in the experiment on OR1J4 clone 1429, 0.915; in the experiment with OR1K1 clone 1315 it was 0.258; with OR1L1 clone 1379 it was 0.947; in the experiment on OR1L3 clone 1090, 1.23; with OR1L4 G234R clone 1102 it was 1.11. The odorant receptor activation in [1] was 0.847; in the experiment with OR1L8 clone 1088, 1.16; with OR1M1 clone 1198, 1.19; in the experiment with OR1N1 clone 1463, 1.16.

Take `O=C1CCCCC1` [Cyclohexanone]: the odorant receptor activation amounted to 1.06 with OR1J2 clone 1443; 0.873 with OR1J4 clone 1429; 0.674 in the experiment with OR1K1 clone 1315; 0.878 with OR1L1 clone 1379; 2.15 with OR1L3 clone 1090; 2.24 in the experiment with OR1L4 G234R clone 1102. Further, the odorant receptor activation was 0.839 with OR1L8 clone 1088; 0.75 with OR1M1 clone 1198; 0.612 and 1.07 in the experiment on OR1N1 clone 1463.

Turning to `CCCCCCCCCC=O` [decyl aldehyde], the odorant receptor activation with OR1J2 clone 1443 was 1.74; with OR1J4 clone 1429, 1.32; with OR1K1 clone 1315, 1.14; in the experiment with OR1L1 clone 1379 it was 1.54; in the experiment on OR1L3 clone 1090 it was 1.19; with OR1L4 G234R clone 1102 it was 1.3. In addition, the odorant receptor activation was 0.872 in experiment [1], 1.4 with OR1L8 clone 1088, 1.45 in the experiment on OR1M1 clone 1198 and 1.03 in the experiment on OR1N1 clone 1463.

Turning to `CCCCCCCOC(C)=O` [heptyl acetate], the odorant receptor activation was 0.642 in the experiment with OR1J2 clone 1443; 1 with OR1J4 clone 1429; 0.76 and 1.13 in the experiment with OR1K1 clone 1315; 0.828 with OR1L1 clone 1379; 1.43 in the experiment with OR1L3 clone 1090; 3.19 in the experiment with OR1L4 G234R clone 1102. In addition, the odorant receptor activation in experiment [1] is 0.7 and 0.773; with OR1L8 clone 1088, 0.661; in the experiment on OR1M1 clone 1198 it was 1.59; in the experiment with OR1N1 clone 1463, 1.07 and 1.38.

As for `CC(=O)OCC=C(C)CCC=C(C)C` [geranyl acetate], the odorant receptor activation was 0.733 with OR1J2 clone 1443; 1.02 in the experiment with OR1J4 clone 1429; 0.756 and 1.23 in the experiment on OR1K1 clone 1315; 0.994 with OR1L1 clone 1379; 1.48 in the experiment on OR1L3 clone 1090; 2.97 in the experiment on OR1L4 G234R clone 1102. Further, the odorant receptor activation was 1.04 and 1.16 in [1]; 1.24 in the experiment with OR1L8 clone 1088; 1.16 in the experiment on OR1M1 clone 1198; 1.03 and 1.3 in the experiment on OR1N1 clone 1463.

For `C=C(C)C1CC=CCC1` (configuration not stated) [r-limonene], the odorant receptor activation with OR1J2 clone 1443 is 1.4 and 0.987; in the experiment with OR1J4 clone 1429 it was 1.24 and 0.949; in the experiment with OR1K1 clone 1315 it was 1.18 and 0.551; in the experiment on OR1L1 clone 1379, 1.28 and 0.971; with OR1L3 clone 1090, 1.7 and 1.1; in the experiment on OR1L4 G234R clone 1102, 1.02 and 0.746. Also, the odorant receptor activation is 0.981 in experiment [1]; 1.41 and 1.02 in the experiment on OR1L8 clone 1088; 1.35 and 0.623 with OR1M1 clone 1198; 1.04 and 0.561 and 0.831 in the experiment with OR1N1 clone 1463.

With `CC=Cc1ccc(O)c(OC)c1` [isoeugenol], the odorant receptor activation in the experiment on OR1J2 clone 1443 was 0.958; with OR1J4 clone 1429 it was 1.37; in the experiment on OR1K1 clone 1315 it was 1.01 and 1.69; in the experiment on OR1L1 clone 1379, 1.31; in the experiment on OR1L3 clone 1090 it was 1.75; in the experiment with OR1L4 G234R clone 1102, 1.77. The odorant receptor activation was 1.13 and 1.63 in experiment [1]; 1.18 in the experiment on OR1L8 clone 1088; 1.19 with OR1M1 clone 1198; 1.08 and 2.28 in the experiment on OR1N1 clone 1463.

For the compound `CCCCCCOC(=O)CCC` [hexyl butyrate], the odorant receptor activation was 0.696 in the experiment with OR1J2 clone 1443; 0.936 in the experiment on OR1J4 clone 1429; 1.09 and 0.862 with OR1K1 clone 1315; 0.65 in the experiment on OR1L1 clone 1379; 0.799 with OR1L3 clone 1090; 1.04 with OR1L4 G234R clone 1102. For the same compound, the odorant receptor activation in experiment [1] was 0.963 and 0.865; in the experiment on OR1L8 clone 1088, 0.604; with OR1M1 clone 1198, 1.56; with OR1N1 clone 1463, 1.11 and 0.861.

`CC(C)CCC(=O)O` [4-methylvaleric acid]: the odorant receptor activation in the experiment with OR1J2 clone 1443 amounted to 1.21; in the experiment on OR1J4 clone 1429, 1.21; in the experiment on OR1K1 clone 1315, 0.925; in the experiment with OR1L1 clone 1379, 0.925; with OR1L3 clone 1090 it was 16; in the experiment with OR1L4 G234R clone 1102 it was 10.1. Also, the odorant receptor activation worked out at 1.1 in experiment [1], 1.36 in the experiment with OR1L8 clone 1088, 0.796 in the experiment on OR1M1 clone 1198 and 0.812 with OR1N1 clone 1463.
